Source: PubChem BioAssay AID1224826 (NIAID, 2016)
This is an unselected part of about 17,000 deposited reagents. About 1,110 of them (6.6%) were called active. 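Active means lowered or raised reporter signal; replicate intensities are raw and not normalised per plate.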 Not all columns of the deposit are shown. No sequences are given here.

Purpose: 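Regulators of Tlr4 signalling leading to Tnf-alpha expression in macrophages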 (primary screen)
Cell system: RAW264.7 G9 macrophages from mouse bearing reporters for p65 (GFP) and the Tnf promoter (mCherry)
Knock-down reagent: siRNA pool against mouse genes, 100 nM
Time to read-out: 16 h of LPS stimulation, after 2 days of siRNA transfection
Conditions: bacterial lipopolysaccharide (Salmonella minnesota R595), 10 ng/ml
Measured: 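Imaged Tnf reporter mCherry in nuclei, minus background, normalised per plate to the median and expressed as robust z-scores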
Direction: Tnf reporter robust z-score: higher = stronger Tnf promoter reporter signal after LPS
Hit rule: 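Called active when robust z-score is at most -1.3, matching the median of the Tlr4 knock-down control, or over 3; control wells and wells with under 50 cells never active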
Meaning of the calls: active = Tnf reporter clearly lowered or raised; inactive = no clear change in Tnf reporter

gene symbol | PubChem SID | Tnf reporter robust z-score | fewer than 50 cells in well | Outcome
Rnf6 | SID315474862 | 0.62 | enough cells in well | inactive
Ppt2 | SID315471225 | -0.62 | enough cells in well | inactive
Pcdhb21 | SID315476004 | 0.7 | enough cells in well | inactive
Olig3 | SID315476062 | -1.62 | enough cells in well | active
Notch2 | SID315468211 | -0.49 | enough cells in well | inactive
Pigr | SID315468507 | 0.32 | enough cells in well | inactive
Il5ra | SID315467459 | 0.29 | enough cells in well | inactive
Kbtbd12 | SID315475010 | 0.21 | enough cells in well | inactive
Ppp1r9b | SID315478076 | 0.93 | enough cells in well | inactive
Saa1 | SID315469087 | 0.73 | enough cells in well | inactive
Mrpl51 | SID315472474 | 3.92 | enough cells in well | active
Hdac6 | SID315467168 | 0.65 | enough cells in well | inactive
Alox12b | SID315465393 | 0.43 | enough cells in well | inactive
Or3a1d | SID315480356 | -1.18 | enough cells in well | inactive
Krtap5-1 | SID315470836 | -0.79 | enough cells in well | inactive
Slc11a1 | SID315468237 | -1.08 | enough cells in well | inactive
Mns1 | SID315467956 | 2.64 | enough cells in well | inactive
Kpnb1 | SID315467472 | -1.61 | enough cells in well | active
Macir | SID315470961 | 3.56 | enough cells in well | active
4930447C04Rik | SID315475206 | 2.58 | enough cells in well | inactive
Arl6ip5 | SID315472146 | -0.3 | enough cells in well | inactive
Immt | SID315475351 | 1.48 | enough cells in well | inactive
L3mbtl2 | SID315477880 | -0.12 | enough cells in well | inactive
Tspan12 | SID315480890 | – | fewer than 50 cells per well; well left out of calls | inactive
Park7 | SID315471760 | -0.42 | enough cells in well | inactive
Fzd9 | SID315466780 | -0.06 | enough cells in well | inactive
Plk2 | SID315469358 | – | fewer than 50 cells per well; well left out of calls | inactive
Slc30a8 | SID315479442 | – | fewer than 50 cells per well; well left out of calls | inactive
Msantd5l | SID315477433 | 0.86 | enough cells in well | inactive
Cdc37l1 | SID315472817 | 0.79 | enough cells in well | inactive
Tmem131l | SID315478704 | -2.03 | enough cells in well | active
Pfkfb3 | SID315477233 | 2.64 | enough cells in well | inactive
Defb34 | SID315481727 | 0.76 | enough cells in well | inactive
Ttf1 | SID315469862 | -0.61 | enough cells in well | inactive
Cfap410 | SID315473286 | 0.55 | enough cells in well | inactive
Hs3st3b1 | SID315471294 | -1.37 | enough cells in well | active
Nicn1 | SID315472322 | 1.32 | enough cells in well | inactive
Bicd2 | SID315475404 | 0.87 | enough cells in well | inactive
Rlf | SID315476813 | 2.42 | enough cells in well | inactive
Mcoln2 | SID315473491 | -1.06 | enough cells in well | inactive

2 entries already listed, ordered by “Tnf reporter robust z-score”, ascending:
gene symbol | PubChem SID | Tnf reporter robust z-score | fewer than 50 cells in well | Outcome
Hs3st3b1 | SID315471294 | -1.37 | enough cells in well | active
Cfap410 | SID315473286 | 0.55 | enough cells in well | inactive
